Experimental data: paper PMC9243202
No constants are given. Whether binding was seen depends on the method and setting. Binding seen in cells or lysates may run through a third protein. Some entries that bind do so weakly or less than the wild type.

The chains behind the UniProt entries cited, without tags or fusion partners.
UniProt Q9H081: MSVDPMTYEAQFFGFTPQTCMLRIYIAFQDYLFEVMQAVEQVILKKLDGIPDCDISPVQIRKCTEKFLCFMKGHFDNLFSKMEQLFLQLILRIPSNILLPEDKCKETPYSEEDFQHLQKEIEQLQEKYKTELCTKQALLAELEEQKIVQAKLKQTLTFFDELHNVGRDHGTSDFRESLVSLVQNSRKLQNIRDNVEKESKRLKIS

Biological target: FLAG-tagged FTO (fat mass of obesity-associated protein) (UniProt Q9C0B1)
Experiment: co-IP; co-IP of MIS12 and FLAG-FTO in HEK293T cells

binding: binds
Substance: MIS12 (from UniProt Q9H081 1-205)
